Data from the supplement of paper PMC12823440, “Inhibitors supercharge kinase turnover through native proteolytic circuits” (Nature, 2025).
Where a name gives a salt, the structure may show the parent alone. The list shows a part of the results. Hit calls seldom repeat between salt and free forms of one compound.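 Kinases were expressed as nanoluciferase fusions in K562 cells and luminescence was read every 4 h between 2 and 18 h as percent of control, DMSO set to 100% and a positive control to 0%. A time point counts as decreased when the signal drops significantly (2 sigma). The hit call is the authors' own, does not follow from the count of time points alone, and its rule is not shown.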

Protein sequences, listed by entry. Tags and fused reporters are not part of them. Lines headed by an entry give the natural chain unless they say otherwise; changes in a name come on top.
UniProt P00519, whole entry: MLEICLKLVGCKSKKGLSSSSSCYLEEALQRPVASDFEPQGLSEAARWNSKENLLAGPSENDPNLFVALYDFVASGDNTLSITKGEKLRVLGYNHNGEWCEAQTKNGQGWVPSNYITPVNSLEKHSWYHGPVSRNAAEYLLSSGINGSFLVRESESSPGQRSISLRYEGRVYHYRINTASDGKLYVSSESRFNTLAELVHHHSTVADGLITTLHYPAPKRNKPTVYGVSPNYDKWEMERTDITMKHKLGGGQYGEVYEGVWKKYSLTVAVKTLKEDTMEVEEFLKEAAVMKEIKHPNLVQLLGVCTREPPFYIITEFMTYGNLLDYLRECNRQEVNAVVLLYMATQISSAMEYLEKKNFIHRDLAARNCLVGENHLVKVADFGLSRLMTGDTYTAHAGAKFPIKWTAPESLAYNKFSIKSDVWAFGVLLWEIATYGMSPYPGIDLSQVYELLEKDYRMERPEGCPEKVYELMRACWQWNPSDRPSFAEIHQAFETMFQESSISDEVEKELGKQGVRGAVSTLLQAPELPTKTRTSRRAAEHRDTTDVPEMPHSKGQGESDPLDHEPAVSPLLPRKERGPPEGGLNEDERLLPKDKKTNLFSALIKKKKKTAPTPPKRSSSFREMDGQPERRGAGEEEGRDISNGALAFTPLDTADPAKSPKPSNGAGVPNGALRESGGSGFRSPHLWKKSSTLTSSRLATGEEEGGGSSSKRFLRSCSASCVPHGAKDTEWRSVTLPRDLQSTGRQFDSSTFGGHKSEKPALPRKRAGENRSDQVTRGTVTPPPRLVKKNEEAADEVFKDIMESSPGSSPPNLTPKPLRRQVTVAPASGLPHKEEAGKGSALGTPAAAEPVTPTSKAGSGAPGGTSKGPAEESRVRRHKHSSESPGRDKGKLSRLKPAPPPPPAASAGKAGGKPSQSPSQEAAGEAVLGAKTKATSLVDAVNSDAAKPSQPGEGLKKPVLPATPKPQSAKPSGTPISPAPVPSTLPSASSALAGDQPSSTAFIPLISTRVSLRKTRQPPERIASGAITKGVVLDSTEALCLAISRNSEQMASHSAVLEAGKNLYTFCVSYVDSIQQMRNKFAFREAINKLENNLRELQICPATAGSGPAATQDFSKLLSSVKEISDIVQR
UniProt P31749: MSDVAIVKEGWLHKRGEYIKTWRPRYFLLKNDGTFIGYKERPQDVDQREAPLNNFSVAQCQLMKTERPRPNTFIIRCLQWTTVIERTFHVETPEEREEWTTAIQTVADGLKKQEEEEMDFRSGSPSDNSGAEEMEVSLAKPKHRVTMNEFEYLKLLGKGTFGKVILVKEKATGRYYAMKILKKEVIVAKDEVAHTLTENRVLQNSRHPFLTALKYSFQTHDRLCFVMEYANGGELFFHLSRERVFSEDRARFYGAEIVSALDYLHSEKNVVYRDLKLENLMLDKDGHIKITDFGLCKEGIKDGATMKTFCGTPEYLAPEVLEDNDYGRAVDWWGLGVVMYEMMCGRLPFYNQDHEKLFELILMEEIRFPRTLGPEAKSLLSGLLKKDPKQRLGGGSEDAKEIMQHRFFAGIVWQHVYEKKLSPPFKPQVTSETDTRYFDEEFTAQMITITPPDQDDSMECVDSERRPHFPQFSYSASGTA
UniProt P10398: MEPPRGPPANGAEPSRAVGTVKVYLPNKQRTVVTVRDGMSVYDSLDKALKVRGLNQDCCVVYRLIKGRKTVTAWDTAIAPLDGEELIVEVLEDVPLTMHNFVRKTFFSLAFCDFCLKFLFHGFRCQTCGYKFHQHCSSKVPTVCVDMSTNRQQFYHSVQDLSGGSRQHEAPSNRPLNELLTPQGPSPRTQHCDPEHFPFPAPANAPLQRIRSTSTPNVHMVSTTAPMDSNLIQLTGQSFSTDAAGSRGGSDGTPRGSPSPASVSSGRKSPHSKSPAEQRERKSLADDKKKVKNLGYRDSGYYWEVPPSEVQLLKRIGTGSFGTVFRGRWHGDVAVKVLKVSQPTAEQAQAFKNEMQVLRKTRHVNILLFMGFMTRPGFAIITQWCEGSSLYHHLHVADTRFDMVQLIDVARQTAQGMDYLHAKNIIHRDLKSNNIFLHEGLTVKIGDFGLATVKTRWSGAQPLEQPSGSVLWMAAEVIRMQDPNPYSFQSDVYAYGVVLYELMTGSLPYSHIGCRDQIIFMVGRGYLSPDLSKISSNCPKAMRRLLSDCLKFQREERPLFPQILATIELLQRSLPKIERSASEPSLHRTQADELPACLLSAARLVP
UniProt O14965: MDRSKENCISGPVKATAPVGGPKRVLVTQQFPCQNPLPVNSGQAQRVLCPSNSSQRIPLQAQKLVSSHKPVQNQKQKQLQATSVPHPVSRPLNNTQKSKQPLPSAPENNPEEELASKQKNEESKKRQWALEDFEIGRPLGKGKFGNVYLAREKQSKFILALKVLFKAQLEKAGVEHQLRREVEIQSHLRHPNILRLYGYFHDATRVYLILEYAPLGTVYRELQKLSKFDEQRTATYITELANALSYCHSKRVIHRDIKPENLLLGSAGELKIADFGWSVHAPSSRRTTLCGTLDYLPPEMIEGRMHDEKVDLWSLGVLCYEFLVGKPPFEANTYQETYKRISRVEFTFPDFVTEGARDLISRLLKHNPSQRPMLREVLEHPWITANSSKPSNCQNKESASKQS
UniProt Q96GD4, whole entry: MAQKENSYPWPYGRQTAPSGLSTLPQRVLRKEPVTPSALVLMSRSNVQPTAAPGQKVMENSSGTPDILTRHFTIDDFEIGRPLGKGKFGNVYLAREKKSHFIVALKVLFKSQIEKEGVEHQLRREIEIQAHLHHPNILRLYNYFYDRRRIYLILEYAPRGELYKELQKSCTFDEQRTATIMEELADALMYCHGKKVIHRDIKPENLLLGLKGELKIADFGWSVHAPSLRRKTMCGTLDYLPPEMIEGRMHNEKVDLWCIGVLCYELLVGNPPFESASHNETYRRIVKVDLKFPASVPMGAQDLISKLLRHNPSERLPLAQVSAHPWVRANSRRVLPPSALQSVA
UniProt Q9UQB9: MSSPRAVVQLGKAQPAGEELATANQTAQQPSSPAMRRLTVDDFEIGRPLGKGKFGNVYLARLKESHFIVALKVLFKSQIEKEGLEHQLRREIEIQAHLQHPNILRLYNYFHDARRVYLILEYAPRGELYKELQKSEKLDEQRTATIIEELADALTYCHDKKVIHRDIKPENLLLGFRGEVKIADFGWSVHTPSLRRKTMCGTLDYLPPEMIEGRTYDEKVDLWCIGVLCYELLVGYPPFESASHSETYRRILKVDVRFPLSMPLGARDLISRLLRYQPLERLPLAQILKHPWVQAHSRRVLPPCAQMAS
UniProt P51451: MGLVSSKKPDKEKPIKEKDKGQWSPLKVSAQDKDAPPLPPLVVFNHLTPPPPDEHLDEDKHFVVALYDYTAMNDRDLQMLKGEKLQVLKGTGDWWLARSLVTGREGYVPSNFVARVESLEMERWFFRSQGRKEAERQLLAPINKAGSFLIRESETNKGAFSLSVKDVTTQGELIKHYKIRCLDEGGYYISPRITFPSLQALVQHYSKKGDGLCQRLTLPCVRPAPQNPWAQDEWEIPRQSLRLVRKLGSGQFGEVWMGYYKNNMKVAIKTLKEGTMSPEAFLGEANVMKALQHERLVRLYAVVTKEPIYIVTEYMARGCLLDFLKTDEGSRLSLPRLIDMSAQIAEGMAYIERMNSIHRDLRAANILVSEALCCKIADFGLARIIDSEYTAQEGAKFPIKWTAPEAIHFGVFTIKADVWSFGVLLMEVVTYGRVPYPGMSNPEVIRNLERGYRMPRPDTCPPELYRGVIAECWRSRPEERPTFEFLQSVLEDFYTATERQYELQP
UniProt P51813: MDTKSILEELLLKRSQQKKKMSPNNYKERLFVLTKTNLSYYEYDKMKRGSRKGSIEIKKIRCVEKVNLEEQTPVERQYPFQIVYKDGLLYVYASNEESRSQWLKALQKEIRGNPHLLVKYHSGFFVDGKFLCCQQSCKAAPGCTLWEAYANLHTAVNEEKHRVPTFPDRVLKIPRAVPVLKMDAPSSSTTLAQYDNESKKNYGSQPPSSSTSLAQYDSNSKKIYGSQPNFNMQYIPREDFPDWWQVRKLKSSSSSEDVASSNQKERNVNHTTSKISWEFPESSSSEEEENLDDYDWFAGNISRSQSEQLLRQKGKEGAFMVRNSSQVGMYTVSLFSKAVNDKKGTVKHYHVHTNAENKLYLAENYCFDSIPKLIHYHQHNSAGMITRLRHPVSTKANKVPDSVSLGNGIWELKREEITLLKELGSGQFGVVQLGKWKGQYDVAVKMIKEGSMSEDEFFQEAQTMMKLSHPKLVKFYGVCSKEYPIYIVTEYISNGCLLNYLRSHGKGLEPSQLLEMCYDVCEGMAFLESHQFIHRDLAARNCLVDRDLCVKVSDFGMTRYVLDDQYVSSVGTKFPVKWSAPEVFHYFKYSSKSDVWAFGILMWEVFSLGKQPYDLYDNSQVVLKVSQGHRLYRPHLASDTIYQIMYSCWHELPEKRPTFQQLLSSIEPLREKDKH
UniProt P15056, whole entry, looked up: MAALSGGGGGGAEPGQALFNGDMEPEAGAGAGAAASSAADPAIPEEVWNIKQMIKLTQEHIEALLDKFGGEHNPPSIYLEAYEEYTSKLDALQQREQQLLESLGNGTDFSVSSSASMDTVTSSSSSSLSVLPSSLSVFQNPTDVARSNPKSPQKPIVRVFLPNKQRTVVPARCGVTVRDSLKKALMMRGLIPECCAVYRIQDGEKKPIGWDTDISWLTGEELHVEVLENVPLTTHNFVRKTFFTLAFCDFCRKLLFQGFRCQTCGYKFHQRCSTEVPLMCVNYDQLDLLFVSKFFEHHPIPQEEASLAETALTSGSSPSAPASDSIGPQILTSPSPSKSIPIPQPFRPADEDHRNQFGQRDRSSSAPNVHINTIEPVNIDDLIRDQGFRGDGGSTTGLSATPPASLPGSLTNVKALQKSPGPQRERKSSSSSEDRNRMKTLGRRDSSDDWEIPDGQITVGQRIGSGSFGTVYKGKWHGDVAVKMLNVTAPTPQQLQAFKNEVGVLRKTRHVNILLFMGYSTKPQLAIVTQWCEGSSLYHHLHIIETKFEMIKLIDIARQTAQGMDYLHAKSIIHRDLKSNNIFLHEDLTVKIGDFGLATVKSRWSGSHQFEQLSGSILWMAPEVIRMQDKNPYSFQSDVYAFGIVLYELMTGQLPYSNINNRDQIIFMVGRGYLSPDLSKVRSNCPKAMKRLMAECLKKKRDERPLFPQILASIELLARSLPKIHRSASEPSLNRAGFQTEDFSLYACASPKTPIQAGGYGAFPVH

Tests used:
Experiment in all cases: kinase-Nluc reporter destabilization hit call (1 = scored as downregulated) (binary); higher = compound decreases kinase abundance
Conditions in all cases: K562; 2-18 h
ABL1 = ABL1 (UniProt P00519)
AKT1 = AKT1 (UniProt P31749)
ALK = ALK (UniProt Q9UM73)
ARAF = ARAF (UniProt P10398)
AURKA = AURKA (UniProt O14965)
AURKB = AURKB (UniProt Q96GD4)
AURKC = AURKC (UniProt Q9UQB9)
BLK = BLK (UniProt P51451)
BMX = BMX (UniProt P51813)
BRAF = BRAF (UniProt P15056)

Measured: kinase-Nluc reporter destabilization hit call

N#Cc1ccnc(Nc2cc(C3CCN(C4COC4)CC3)cc(N3CCC(F)(F)C3)n2)c1 (2.5 µM)
inactive: ABL1 = 0 | AKT1 = 0 | ALK 0 | ARAF 0 | AURKA 0 | AURKB 0 | AURKC 0 | BLK 0 | BMX 0 | BRAF 0

NC(=S)n1[nH]c(-c2ccc([N+](=O)[O-])cc2)c(N=Nc2cccc(Cl)c2)c1=O (2.5 µM)
inactive: ABL1 = 0 | AKT1 = 0 | ALK 0 | ARAF 0 | AURKA 0 | AURKB 0 | AURKC 0 | BLK 0 | BMX 0 | BRAF 0

CC(C)=CC(=O)O[C@H]1Cc2cc3ccc(=O)oc3cc2OC1(C)C [Decursin] (10 µM)
inactive: ABL1 = 0 | AKT1 = 0 | ALK 0 | ARAF 0 | AURKA 0 | AURKB 0 | AURKC 0 | BLK 0 | BMX 0 | BRAF 0

Cc1cc(-c2ccnc(Nc3cnn(C)c3)n2)ccc1CNC(=O)N1CC(OC(C)C)C1 (10 µM)
inactive: ABL1 = 0 | AKT1 = 0 | ALK 0 | ARAF 0 | AURKA 0 | AURKB 0 | AURKC 0 | BLK 0 | BMX 0 | BRAF 0

Cc1ccc(NC(=O)c2ccnc(C(F)(F)F)c2)cc1-c1cc(OCCO)nc(N2CCOCC2)c1 (10 µM)
inactive: ABL1 = 0 | AKT1 = 0 | ALK 0 | ARAF 0 | AURKA 0 | AURKB 0 | AURKC 0 | BLK 0 | BMX 0 | BRAF 0

Oc1cc(O)c2c(c1)OC1(c3ccc(O)c(O)c3)Oc3cc(O)c4c(c3C2C1O)OC(c1ccc(O)c(O)c1)C(O)C4 (stereo not given) [Procyanidin A1] (10 µM)
inactive: ABL1 = 0 | AKT1 = 0 | ALK 0 | ARAF 0 | AURKA 0 | AURKB 0 | AURKC 0 | BLK 0 | BMX 0 | BRAF 0

O=C(O)c1cccc(CN2C(=O)/C(=C(\c3ccccc3)c3ccc(Cl)cc3)c3ccccc32)c1 (2.5 µM)
inactive: ABL1 = 0 | AKT1 = 0 | ALK 0 | ARAF 0 | AURKA 0 | AURKB 0 | AURKC 0 | BLK 0 | BMX 0 | BRAF 0

CC(C)(C[C@H](N)C(=O)O)C(F)F [NV-5138 (hydrochloride)] (10 µM)
inactive: ABL1 = 0 | AKT1 = 0 | ALK 0 | ARAF 0 | AURKA 0 | AURKB 0 | AURKC 0 | BLK 0 | BMX 0 | BRAF 0

CN(C)CCC=C1c2ccccc2CCc2ccccc21 [Amitriptyline (hydrochloride)] (2.5 µM)
inactive: ABL1 = 0 | AKT1 = 0 | ALK 0 | ARAF 0 | AURKA 0 | AURKB 0 | AURKC 0 | BLK 0 | BMX 0 | BRAF 0

C=CC(=O)N1C(=O)CC(c2ccc(F)cc2)Sc2ccccc21 (stereo not drawn) [GSK-3β inhibitor 3] (10 µM)
inactive: ABL1 = 0 | AKT1 = 0 | ALK 0 | ARAF 0 | AURKA 0 | AURKB 0 | AURKC 0 | BLK 0 | BMX 0 | BRAF 0

C[C@@H]1CN(c2cc(-c3n[nH]c4ccc(OC5(C)CC5)cc34)ncn2)C[C@H](C)O1 (10 µM)
inactive: ABL1 = 0 | AKT1 = 0 | ALK 0 | ARAF 0 | AURKA 0 | AURKB 0 | AURKC 0 | BLK 0 | BMX 0 | BRAF 0

Nc1ncnc2c1c(-c1ccc(Oc3ccccc3)cc1)nn2C1CCN(CCOCCOCCOc2ccc3c(c2)CN(C2CCC(=O)NC2=O)C3=O)CC1 (stereo not given) (2.5 µM)
inactive: ABL1 = 0 | AKT1 = 0 | ALK 0 | ARAF 0 | AURKA 0 | AURKB 0 | AURKC 0 | BLK 0 | BMX 0 | BRAF 0

Nc1cccc(-c2cc3c(Oc4cccc(O)c4)ncnc3[nH]2)c1 (10 µM)
inactive: ABL1 = 0 | AKT1 = 0 | ALK 0 | ARAF 0 | AURKA 0 | AURKB 0 | AURKC 0 | BLK 0 | BMX 0 | BRAF 0

Cc1cnc(NC2CCOCC2)nc1-n1cnc(C(=O)N[C@H](CN)c2cc(F)cc(Cl)c2)c1 (10 µM)
inactive: ABL1 = 0 | AKT1 = 0 | ALK 0 | ARAF 0 | AURKA 0 | AURKB 0 | AURKC 0 | BLK 0 | BMX 0 | BRAF 0

Part of the list above in order of count of non-hydrogen atoms, smallest number first.
Nc1cccc(-c2cc3c(Oc4cccc(O)c4)ncnc3[nH]2)c1 (10 µM)
inactive: ABL1 = 0 | AKT1 = 0 | ALK 0 | ARAF 0 | AURKA 0 | AURKB 0 | AURKC 0 | BLK 0 | BMX 0 | BRAF 0

C[C@@H]1CN(c2cc(-c3n[nH]c4ccc(OC5(C)CC5)cc34)ncn2)C[C@H](C)O1 (10 µM)
inactive: ABL1 = 0 | AKT1 = 0 | ALK 0 | ARAF 0 | AURKA 0 | AURKB 0 | AURKC 0 | BLK 0 | BMX 0 | BRAF 0

Cc1cnc(NC2CCOCC2)nc1-n1cnc(C(=O)N[C@H](CN)c2cc(F)cc(Cl)c2)c1 (10 µM)
inactive: ABL1 = 0 | AKT1 = 0 | ALK 0 | ARAF 0 | AURKA 0 | AURKB 0 | AURKC 0 | BLK 0 | BMX 0 | BRAF 0

Additional structures

Cc1cc(C)nc(NS(=O)(=O)c2ccc(NC(=S)NC(=O)COc3ccc(Br)cc3Cl)cc2)n1 (2.5 µM)
inactive: ABL1 = 0 | AKT1 = 0 | ALK 0 | ARAF 0 | AURKA 0 | AURKB 0 | AURKC 0 | BLK 0 | BMX 0 | BRAF 0
